Results are given in words; binding and its absence hold for the method and conditions named. In cells and extracts the contact can be indirect. Some binding calls cover weakened binding; strength is not graded here.
Assays:
[1] = target: Nr4a1 (transfected into 293T cells) (UniProt P12813); experiment: co-IP; 293T cells transfected with the Runx3 distal promoter region and a control vector or Nr4a1; collected 24 and 48 hrs after transfection; IP with anti-Nr4a1 antibody, western blot with anti-CoREST antibody
[2] = target: Nr4a1 (endogenous in human CD8+ T cells) (human (endogenous in CD8+ T cells from blood)) (UniProt P22736); experiment: co-IP; human CD8+ T cells isolated from blood, stimulated with anti-CD3/anti-CD28 dynabeads for 1 or 2 hrs; IP with anti-Nr4a1 antibody, western blot with anti-CoREST antibody

Amino acid sequences for entries named in this document (tags omitted).
UniProt P12813: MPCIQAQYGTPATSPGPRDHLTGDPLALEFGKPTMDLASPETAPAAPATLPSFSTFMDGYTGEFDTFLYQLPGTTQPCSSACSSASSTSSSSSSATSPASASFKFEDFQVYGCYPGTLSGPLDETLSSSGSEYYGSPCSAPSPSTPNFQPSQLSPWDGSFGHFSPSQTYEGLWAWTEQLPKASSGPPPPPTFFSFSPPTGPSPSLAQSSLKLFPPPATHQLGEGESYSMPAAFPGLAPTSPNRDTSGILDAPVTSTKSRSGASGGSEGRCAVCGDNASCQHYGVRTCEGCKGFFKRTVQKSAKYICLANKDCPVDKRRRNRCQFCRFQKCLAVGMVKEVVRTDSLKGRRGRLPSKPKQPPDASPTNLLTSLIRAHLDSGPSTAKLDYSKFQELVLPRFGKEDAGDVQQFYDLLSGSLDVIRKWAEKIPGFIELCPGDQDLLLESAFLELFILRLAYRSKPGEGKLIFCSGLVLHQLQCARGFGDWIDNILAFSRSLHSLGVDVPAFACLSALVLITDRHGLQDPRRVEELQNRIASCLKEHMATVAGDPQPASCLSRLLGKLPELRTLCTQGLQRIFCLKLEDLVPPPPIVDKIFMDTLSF
UniProt P22736: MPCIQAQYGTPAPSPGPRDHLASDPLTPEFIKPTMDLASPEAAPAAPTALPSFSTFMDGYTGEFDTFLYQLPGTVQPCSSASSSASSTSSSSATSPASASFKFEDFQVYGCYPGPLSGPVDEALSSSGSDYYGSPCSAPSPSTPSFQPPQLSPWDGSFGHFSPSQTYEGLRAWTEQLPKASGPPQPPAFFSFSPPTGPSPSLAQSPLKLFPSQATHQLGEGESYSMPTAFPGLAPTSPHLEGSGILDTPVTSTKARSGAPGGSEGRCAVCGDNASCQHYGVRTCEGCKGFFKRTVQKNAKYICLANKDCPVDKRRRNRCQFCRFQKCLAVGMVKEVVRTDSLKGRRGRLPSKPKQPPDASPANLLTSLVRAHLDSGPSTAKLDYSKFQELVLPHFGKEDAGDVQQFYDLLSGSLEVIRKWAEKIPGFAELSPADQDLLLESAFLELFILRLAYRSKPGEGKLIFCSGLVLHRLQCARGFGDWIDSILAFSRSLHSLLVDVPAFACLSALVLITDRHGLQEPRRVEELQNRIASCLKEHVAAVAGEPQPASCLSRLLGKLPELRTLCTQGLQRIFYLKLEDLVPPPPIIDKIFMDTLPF
UniProt Q9UKL0: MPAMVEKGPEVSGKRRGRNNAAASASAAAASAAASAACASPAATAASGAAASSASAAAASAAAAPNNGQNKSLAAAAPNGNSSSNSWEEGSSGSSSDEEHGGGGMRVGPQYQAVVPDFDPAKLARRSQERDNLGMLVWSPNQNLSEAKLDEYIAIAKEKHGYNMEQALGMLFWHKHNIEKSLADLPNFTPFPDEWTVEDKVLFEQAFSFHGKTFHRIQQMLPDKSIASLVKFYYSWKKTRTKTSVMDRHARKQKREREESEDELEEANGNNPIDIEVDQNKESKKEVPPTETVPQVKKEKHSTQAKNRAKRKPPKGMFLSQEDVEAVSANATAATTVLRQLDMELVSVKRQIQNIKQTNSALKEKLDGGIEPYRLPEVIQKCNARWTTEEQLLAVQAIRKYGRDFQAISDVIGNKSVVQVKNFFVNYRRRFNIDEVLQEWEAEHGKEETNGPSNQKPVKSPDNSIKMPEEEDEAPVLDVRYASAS

Substance	binding [1]	binding [2]
CoREST (endogenous in 293T cells) (from UniProt Q9UKL0 1-485)	binds	–
CoREST (endogenous in human CD8+ T cells) (from UniProt Q9UKL0 1-485)	–	binds

Source: article PMC4356985
